From publication PMC6191436
No constants are given. Whether binding was seen depends on the method and setting. In cells and extracts the contact can be indirect. Some binding calls cover weakened binding; strength is not graded here.

Sequences of proteins named here, by UniProt entry; tags and fusion partners are left off.
UniProt P38398: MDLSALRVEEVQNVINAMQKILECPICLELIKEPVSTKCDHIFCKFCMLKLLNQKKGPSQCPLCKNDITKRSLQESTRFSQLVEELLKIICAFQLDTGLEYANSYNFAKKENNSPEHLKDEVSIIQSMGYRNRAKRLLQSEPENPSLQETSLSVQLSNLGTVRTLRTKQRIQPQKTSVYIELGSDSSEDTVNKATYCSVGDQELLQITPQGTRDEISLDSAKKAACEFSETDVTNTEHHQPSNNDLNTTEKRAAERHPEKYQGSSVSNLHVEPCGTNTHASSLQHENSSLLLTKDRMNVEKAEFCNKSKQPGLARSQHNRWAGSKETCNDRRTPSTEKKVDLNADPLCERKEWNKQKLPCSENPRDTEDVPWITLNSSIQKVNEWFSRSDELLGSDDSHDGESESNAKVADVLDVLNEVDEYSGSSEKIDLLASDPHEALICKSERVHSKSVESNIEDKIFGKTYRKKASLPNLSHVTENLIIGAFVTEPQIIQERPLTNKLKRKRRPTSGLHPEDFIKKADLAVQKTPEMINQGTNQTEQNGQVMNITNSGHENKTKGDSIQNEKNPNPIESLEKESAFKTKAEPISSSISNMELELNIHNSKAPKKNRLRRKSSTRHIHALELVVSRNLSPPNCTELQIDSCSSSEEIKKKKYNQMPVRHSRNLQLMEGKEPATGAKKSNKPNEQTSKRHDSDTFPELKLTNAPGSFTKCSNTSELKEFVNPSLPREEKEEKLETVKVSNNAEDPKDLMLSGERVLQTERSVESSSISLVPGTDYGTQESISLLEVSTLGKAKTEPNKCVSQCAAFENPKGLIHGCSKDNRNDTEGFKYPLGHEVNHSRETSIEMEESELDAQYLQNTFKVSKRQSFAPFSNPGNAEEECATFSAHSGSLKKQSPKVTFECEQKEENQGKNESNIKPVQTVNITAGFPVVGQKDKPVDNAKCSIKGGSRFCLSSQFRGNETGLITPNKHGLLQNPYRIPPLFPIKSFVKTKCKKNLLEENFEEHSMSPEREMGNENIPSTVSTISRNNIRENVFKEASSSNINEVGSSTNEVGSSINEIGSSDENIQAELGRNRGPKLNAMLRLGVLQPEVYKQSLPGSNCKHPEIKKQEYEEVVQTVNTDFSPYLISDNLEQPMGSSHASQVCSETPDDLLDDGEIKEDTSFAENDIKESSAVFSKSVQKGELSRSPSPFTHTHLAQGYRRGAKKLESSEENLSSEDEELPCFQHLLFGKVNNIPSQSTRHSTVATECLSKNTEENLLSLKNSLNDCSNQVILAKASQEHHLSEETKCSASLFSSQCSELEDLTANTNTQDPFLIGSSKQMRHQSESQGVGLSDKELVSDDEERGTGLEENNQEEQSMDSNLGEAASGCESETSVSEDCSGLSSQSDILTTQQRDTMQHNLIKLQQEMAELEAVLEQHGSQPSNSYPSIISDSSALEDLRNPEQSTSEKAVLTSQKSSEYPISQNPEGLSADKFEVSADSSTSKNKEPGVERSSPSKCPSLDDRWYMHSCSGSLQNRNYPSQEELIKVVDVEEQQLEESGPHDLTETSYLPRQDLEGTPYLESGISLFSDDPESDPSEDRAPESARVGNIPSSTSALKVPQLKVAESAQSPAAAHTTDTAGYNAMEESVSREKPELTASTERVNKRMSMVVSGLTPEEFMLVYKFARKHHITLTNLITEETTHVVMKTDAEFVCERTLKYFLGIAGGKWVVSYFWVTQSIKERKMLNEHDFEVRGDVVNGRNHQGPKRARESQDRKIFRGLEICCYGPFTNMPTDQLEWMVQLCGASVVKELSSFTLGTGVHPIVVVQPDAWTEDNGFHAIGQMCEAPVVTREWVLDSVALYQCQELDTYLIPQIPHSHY
UniProt P14635: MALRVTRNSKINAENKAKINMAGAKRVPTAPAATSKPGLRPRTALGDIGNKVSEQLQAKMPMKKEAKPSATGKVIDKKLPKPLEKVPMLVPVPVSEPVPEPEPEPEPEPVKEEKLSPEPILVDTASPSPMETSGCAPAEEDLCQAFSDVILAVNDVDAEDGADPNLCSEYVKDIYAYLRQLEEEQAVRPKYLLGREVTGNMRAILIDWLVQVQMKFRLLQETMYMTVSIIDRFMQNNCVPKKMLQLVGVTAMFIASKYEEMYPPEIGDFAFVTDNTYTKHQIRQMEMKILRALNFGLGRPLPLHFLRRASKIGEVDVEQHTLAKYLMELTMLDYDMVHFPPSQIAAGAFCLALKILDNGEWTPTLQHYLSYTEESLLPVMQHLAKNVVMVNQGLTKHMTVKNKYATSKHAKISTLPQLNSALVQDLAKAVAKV

Molecular target: BRCA1 (endogenous, MCF7) (human (endogenous in MCF7)) (UniProt P38398)
Assay: co-IP; endogenous proteins; lysates of MCF7 cells (irradiated or not; nocodazole-arrested and released); anti-BRCA1 IgG or control IgG, protein A/G Sepharose beads, overnight at 4 °C; Western blot

- binding: binds
Substance: cyclin B1 (endogenous, MCF7) (from UniProt P14635 1-433)
